Measured values as given in doi:10.1101/2022.06.30.498318.
These are yes or no findings as the source states them, for the method shown. Binding seen in cells or lysates may run through a third protein. Tags and fused reporters may be left off the sequences shown.

Tests used:
[1] = target: T1, Arabidopsis FBN4 with C-terminal myc tag (Arabidopsis thaliana) (UniProt Q9LW57); assay: co-IP
T1 sequence: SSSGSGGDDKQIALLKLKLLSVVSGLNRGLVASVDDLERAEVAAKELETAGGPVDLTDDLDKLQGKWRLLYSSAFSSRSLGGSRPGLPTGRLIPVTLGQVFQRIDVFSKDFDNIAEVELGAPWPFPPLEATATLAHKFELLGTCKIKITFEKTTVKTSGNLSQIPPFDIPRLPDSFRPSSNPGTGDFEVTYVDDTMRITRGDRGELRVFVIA

[2] = target: T2, Arabidopsis phosphoribulokinase with C-terminal myc tag (Arabidopsis thaliana) (UniProt P25697); assay: co-IP
T2 sequence: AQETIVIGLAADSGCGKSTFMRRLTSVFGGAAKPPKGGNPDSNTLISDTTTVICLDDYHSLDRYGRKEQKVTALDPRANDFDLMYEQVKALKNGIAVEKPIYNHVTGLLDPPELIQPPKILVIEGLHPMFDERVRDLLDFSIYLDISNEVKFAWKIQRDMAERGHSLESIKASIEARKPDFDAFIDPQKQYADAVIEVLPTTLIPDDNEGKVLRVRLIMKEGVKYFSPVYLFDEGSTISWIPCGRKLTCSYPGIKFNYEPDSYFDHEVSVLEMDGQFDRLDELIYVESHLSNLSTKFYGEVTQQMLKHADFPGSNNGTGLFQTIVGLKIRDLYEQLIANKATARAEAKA

binding [1]: no binding
binding [2]: no binding
B1: Arabidopsis phytoene synthase with C-terminal GFP tag (enzyme, UniProt P37271 71-422)
chain: SSLVASPSGEIALSSEEKVYNVVLKQAALVNKQLRSSSYDLDVKKPQDVVLPGSLSLLGEAYDRCGEVCAEYAKTFYLGTLLMTPERRKAIWAIYVWCRRTDELVDGPNASHITPMALDRWEARLEDLFRGRPFDMLDAALADTVARYPVDIQPFRDMIEGMRMDLKKSRYQNFDDLYLYCYYVAGTVGLMSVPVMGIDPKSKATTESVYNAALALGIANQLTNILRDVGEDARRGRVYLPQDELAQAGLSDEDIFAGKVTDKWRNFMKMQLKRARMFFDEAEKGVTELSAASRWPVWASLLLYRRILDEIEANDYNNFTKRAYVGKVKKIAALPLAYAKSVLKTSSSRLSI
